Data: publication PMC10958042
These are yes or no findings as the source states them, for the method shown. In cells and extracts the contact can be indirect. Some entries that bind do so weakly or less than the wild type. Where a sequence is shown, tags or fusion partners need not be part of it.

Biological target: T1, Protein A-ATGL P258L (human) (UniProt Q96AD5)
T1 sequence: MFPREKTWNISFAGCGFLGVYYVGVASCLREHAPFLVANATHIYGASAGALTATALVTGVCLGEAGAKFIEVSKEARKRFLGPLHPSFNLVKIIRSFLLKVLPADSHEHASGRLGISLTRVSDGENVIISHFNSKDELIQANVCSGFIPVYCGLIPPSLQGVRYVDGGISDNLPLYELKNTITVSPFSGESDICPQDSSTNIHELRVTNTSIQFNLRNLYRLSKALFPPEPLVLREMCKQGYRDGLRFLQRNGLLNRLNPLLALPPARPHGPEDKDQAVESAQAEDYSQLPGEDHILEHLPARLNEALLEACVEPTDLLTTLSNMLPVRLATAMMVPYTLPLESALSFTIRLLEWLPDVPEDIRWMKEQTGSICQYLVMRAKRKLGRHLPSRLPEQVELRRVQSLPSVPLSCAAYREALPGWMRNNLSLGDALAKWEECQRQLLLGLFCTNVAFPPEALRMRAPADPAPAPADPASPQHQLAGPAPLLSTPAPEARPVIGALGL
Assay: co-IP; LUMIER luminescence-based co-immunoprecipitation: Protein A-ATGL variant and firefly-luciferase partner co-expressed in HEK293T, SDS-free RIPA2 lysate precipitated in IgG-coated plates 2 h at 4 °C, luminescence read; log2 fold change against wild-type ATGL, two experiments in triplicate

B1: CIDEC wild type, firefly-luciferase fusion (protein, UniProt Q96AQ7 1-238)
chain: MEYAMKSLSLLYPKSLSRHVSVRTSVVTQQLLSEPSPKAPRARPCRVSTADRSVRKGIMAYSLEDLLLKVRDTLMLADKPFFLVLEEDGTTVETEEYFQALAGDTVFMVLQKGQKWQPPSEQGTRHPLSLSHKPAKKIDVARVTFDLYKLNPQDFIGCLNVKATFYDTYSLSYDLHCCGAKRIMKEAFRWALFSMQATGHVLLGTSCYLQQLLDATEEGQPPKGKASSLIPTCLKILQ
With B1 the binding was “binds”.
